One molecule from paper PMC5666884 can be followed below.

Results are given in words; binding and its absence hold for the method and conditions named. Binding seen in cells or lysates may run through a third protein.

The experiment concerns the target T1, activating transcription factor 4 (ATF4) (UniProt Q06507).
T1 sequence: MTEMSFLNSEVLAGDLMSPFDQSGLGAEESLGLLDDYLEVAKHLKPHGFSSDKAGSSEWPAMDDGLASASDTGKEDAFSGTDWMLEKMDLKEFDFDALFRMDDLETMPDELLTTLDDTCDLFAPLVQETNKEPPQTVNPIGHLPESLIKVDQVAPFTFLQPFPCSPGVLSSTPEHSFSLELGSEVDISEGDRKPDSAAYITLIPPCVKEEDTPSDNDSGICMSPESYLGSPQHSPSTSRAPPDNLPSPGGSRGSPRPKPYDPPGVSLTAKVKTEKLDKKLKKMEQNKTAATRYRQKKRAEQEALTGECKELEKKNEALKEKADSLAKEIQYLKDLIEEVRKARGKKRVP
Briefly: co-IP; NFATc1 and ATF4 overexpressed together in C2C12 cells; lysis buffer 150 mM NaCl, 25 mM Tris-HCl, 2% Brij35, 10 mM EDTA, brief sonication; lysate incubated with 10 µg of NFATc1 antibody, ATF4 antibody or control IgG, then protein G agarose beads; immunoblot. In general terms: A western blot detects proteins with antibodies after separation by electrophoresis.

B1: nuclear factor of activated T-cells cytoplasmic 1 (NFATc1) (protein, UniProt O88942 1-717)
chain: MPNTSFPVPSKFPLGPPAAVCGSGETLRPAPPSGGTMKAAEEEHYSYVSPSVTSTLPLPTAHSALPAACHDLQTSTPGISAVPSANHPPSYGGAVDSGPSGYFLSSGNTRPNGAPTLESPRIEITSYLGLHHGSGQFFHDVEVEDVLPSCKRSPSTATLHLPSLEAYRDPSCLSPASSLSSRSCNSEASSYESNYSYPYASPQTSPWQSPCVSPKTTDPEEGFPRSLGACHLLGSPRHSPSTSPRASITEESWLGARGSRPTSPCNKRKYSLNGRQPSCSPHHSPTPSPHGSPRVSVTEDTWLGNTTQYTSSAIVAAINALTTDSTLDLGDGVPIKSRKTALEHAPSVALKVEPAGEDLGTTPPTSDFPPEEYTFQHLRKGAFCEQYLSVPQASYQWAKPKSLSPTSYMSPSLPALDWQLPSHSGPYELRIEVQPKSHHRAHYETEGSRGAVKASAGGHPIVQLHGYLENEPLTLQLFIGTADDRLLRPHAFYQVHRITGKTVSTTSHEIILSNTKVLEIPLLPENNMRAIIDCAGILKLRNSDIELRKGETDIGRKNTRVRLVFRVHIPQPNGRTLSLQVASNPIECSQRSAQELPLVEKQSTDSYPVIGGKKMVLSGHNFLQDSKVIFVEKAPDGHHVWEMEAKTDRDLCKPNSLVVEIPPFRNQRITSPAQVSFYVCNGKRKRSQYQRFTYLPANGNSVFLTLSSESELRGGFY
As for B1, the binding result is on record as “no binding”.
